Assay results as given in patent US12265082B2 (SYNOVO GMBH, priority 2016, dated 2025).

Test: general procedure: solution-phase peptide synthesis; CDI; EDC·HCl/HOBt/DIPEA; DCC/HOBt

Substance | step yield (late stage modification step) [%] | step yield (coupling step) [%] | conjugation yield (conjugation step)
Acrylamido-AAPVA-RBB | >95 | – | –
Acrylamido-AAPVAA-RBB | >95 | – | –
Fmoc-AAAPM-RBB | – | >85 | –
Fmoc-AAPFA-RBB | – | −98 | –
Fmoc-AAPVA-RBB | – | −70 | ˜23%
Fmoc-AAPVAA-RBB | – | −58 | –
